In the supplement of paper PMC6078165:
± gives the standard deviation of the averaged measurements. Values are relative to the signal before dosing, not to a vehicle control; the signal also falls without drug.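 Fibroblast labels denote human fibroblasts, mainly primary ones from uterus (C12385, HUF), lung (H6013), bone (Hs27A), adrenal (HADF) and skin (WS1), plus mammary HMF and breast cancer-associated Hs343T. Cancer cells are basal-like or mesenchymal-like triple-negative breast cancer lines. A hit is a response shift exceeding 3x replicate standard deviation. The tissue of the other fibroblasts is not given here.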

Tested on: MDAMB468
Test: relative JC-1 red fluorescence (viability) vs pre-drug, coculture with fibroblast (fraction); higher = more viable cancer cells
Method: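 JC-1 labelled TNBC cells cocultured 1:1 (1,500 cells each) with CellTrace Violet stained primary or stromal fibroblasts in 384-well plates in FluoroBrite medium, treated with one of 42 anticancer drugs at 0.1, 1, 10 or 100 uM. JC-1 red fluorescence (mitochondrial integrity in cancer cells only) was read by plate reader every 8 h for 72 h. Values are normalised to each well's pre-drug value. The stock of one drug was tenfold lower, so its dose labels may be too high.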

COc1cc([C@@H]2c3cc4c(cc3[C@@H](O[C@@H]3O[C@@H]5CO[C@@H](c6cccs6)O[C@H]5[C@H](O)[C@H]3O)[C@H]3COC(=O)[C@H]23)OCO4)cc(OC)c1O [Teniposide]
relative JC-1 red fluorescence
Settings | 8 h | 16 h | 24 h | 32 h | 40 h | 48 h | 56 h | 64 h | 72 h
10 µM, coculture fibroblast: C12385 | 0.868 ± 0.029 | 0.847 ± 0.0024 | 0.816 ± 0.025 | 0.742 ± 0.037 | 0.703 ± 0.054 | 0.685 ± 0.067 | 0.643 ± 0.08 | 0.629 ± 0.086 | 0.606 ± 0.058
10 µM, coculture fibroblast: H6013 | 0.864 ± 0.011 | 0.85 ± 0.021 | 0.809 ± 0.024 | 0.771 ± 0.033 | 0.739 ± 0.029 | 0.728 ± 0.041 | 0.689 ± 0.026 | 0.674 ± 0.04 | 0.598 ± 0.029
10 µM, coculture fibroblast: H6019 | 0.841 ± 0.023 | 0.81 ± 0.012 | 0.767 ± 0.022 | 0.713 ± 0.044 | 0.678 ± 0.036 | 0.681 ± 0.038 | 0.65 ± 0.049 | 0.642 ± 0.052 | 0.647 ± 0.052
10 µM, coculture fibroblast: H6076 | 0.9066 ± 0.0023 | 0.915 ± 0.024 | 0.8359 ± 0.0076 | 0.827 ± 0.028 | 0.727 ± 0.02 | 0.714 ± 0.038 | 0.667 ± 0.036 | 0.655 ± 0.04 | 0.703 ± 0.055
10 µM, coculture fibroblast: H6231 | 0.8352 ± 0.0053 | 0.958 ± 0.0096 | 0.87 ± 0.011 | 0.827 ± 0.021 | 0.724 ± 0.026 | 0.691 ± 0.023 | 0.628 ± 0.028 | 0.587 ± 0.049 | 0.581 ± 0.075
10 µM, coculture fibroblast: HADF | 0.878 ± 0.052 | 0.886 ± 0.052 | 0.836 ± 0.061 | 0.809 ± 0.067 | 0.782 ± 0.084 | 0.778 ± 0.1 | 0.731 ± 0.11 | 0.721 ± 0.12 | 0.645 ± 0.099
10 µM, coculture fibroblast: HCFa | 0.859 ± 0.021 | 0.836 ± 0.033 | 0.771 ± 0.043 | 0.727 ± 0.046 | 0.684 ± 0.054 | 0.687 ± 0.046 | 0.625 ± 0.043 | 0.602 ± 0.052 | 0.554 ± 0.053
10 µM, coculture fibroblast: HCPF | 0.8768 ± 0.0039 | 0.957 ± 0.013 | 0.8963 ± 0.0023 | 0.907 ± 0.011 | 0.809 ± 0.015 | 0.783 ± 0.045 | 0.712 ± 0.038 | 0.694 ± 0.053 | 0.674 ± 0.045
10 µM, coculture fibroblast: HHSteC | 0.902 ± 0.018 | 0.892 ± 0.027 | 0.851 ± 0.048 | 0.82 ± 0.056 | 0.797 ± 0.086 | 0.814 ± 0.11 | 0.747 ± 0.12 | 0.716 ± 0.13 | 0.653 ± 0.11
10 µM, coculture fibroblast: HMF | 0.841 ± 0.039 | 0.936 ± 0.027 | 0.827 ± 0.042 | 0.79 ± 0.043 | 0.687 ± 0.022 | 0.656 ± 0.027 | 0.589 ± 0.014 | 0.55 ± 0.007 | 0.536 ± 0.0098
10 µM, coculture fibroblast: HPFa | 0.9215 ± 0.0056 | 0.8982 ± 0.0031 | 0.86 ± 0.017 | 0.786 ± 0.049 | 0.758 ± 0.053 | 0.768 ± 0.068 | 0.691 ± 0.045 | 0.672 ± 0.051 | 0.593 ± 0.061
10 µM, coculture fibroblast: HUF | 0.892 ± 0.019 | 0.841 ± 0.038 | 0.778 ± 0.083 | 0.701 ± 0.12 | 0.65 ± 0.11 | 0.632 ± 0.12 | 0.587 ± 0.11 | 0.584 ± 0.091 | 0.567 ± 0.099
10 µM, coculture fibroblast: Hs5 | 0.986 ± 0.019 | 0.9376 ± 0.0044 | 0.9085 ± 0.0076 | 0.8896 ± 0.0021 | 0.806 ± 0.023 | 0.777 ± 0.01 | 0.763 ± 0.011 | 0.7246 ± 0.002 | 0.7467 ± 0.0044
10 µM, coculture fibroblast: Hs27A | 0.867 ± 0.012 | 0.875 ± 0.031 | 0.808 ± 0.024 | 0.807 ± 0.023 | 0.785 ± 0.039 | 0.797 ± 0.049 | 0.77 ± 0.08 | 0.757 ± 0.073 | 0.69 ± 0.087
10 µM, coculture fibroblast: Hs343T | 0.8935 ± 0.0025 | 0.97 ± 0.012 | 0.89034 ± 0.00085 | 0.85414 ± 8.7e-05 | 0.736 ± 0.031 | 0.688 ± 0.031 | 0.611 ± 0.0078 | 0.577 ± 0.013 | 0.56 ± 0.0056
10 µM, coculture fibroblast: WS1 | 0.8718 ± 0.0018 | 0.842 ± 0.035 | 0.772 ± 0.027 | 0.713 ± 0.028 | 0.684 ± 0.035 | 0.638 ± 0.065 | 0.612 ± 0.062 | 0.568 ± 0.08 | 0.555 ± 0.1
100 µM, coculture fibroblast: C12385 | 0.934 ± 0.013 | 0.951 ± 0.035 | 0.953 ± 0.042 | 0.919 ± 0.063 | 0.895 ± 0.11 | 0.908 ± 0.11 | 0.863 ± 0.12 | 0.842 ± 0.14 | 0.835 ± 0.12
100 µM, coculture fibroblast: H6013 | 0.94 ± 0.037 | 0.925 ± 0.076 | 0.901 ± 0.12 | 0.828 ± 0.042 | 0.818 ± 0.16 | 0.848 ± 0.12 | 0.754 ± 0.043 | 0.915 ± 0.023 | 0.89 ± 0.037
100 µM, coculture fibroblast: H6019 | 0.875 ± 0.013 | 0.8546 ± 0.0066 | 0.832 ± 0.01 | 0.845 ± 0.035 | 0.887 ± 0.045 | 0.916 ± 0.028 | 0.906 ± 0.016 | 0.914 ± 0.016 | 0.929 ± 0.025
100 µM, coculture fibroblast: H6076 | 0.984 ± 0.02 | 0.8313 ± 0.0014 | 0.791 ± 0.1 | 0.891 ± 0.13 | 0.915 ± 0.016 | 0.858 ± 0.051 | 0.808 ± 0.13 | 0.903 ± 0.0096 | 0.911 ± 0.082
100 µM, coculture fibroblast: H6231 | 0.876 ± 0.024 | 0.936 ± 0.058 | 0.9527 ± 0.0034 | 0.95664 ± 0.00067 | 0.909 ± 0.023 | 0.9248 ± 0.0088 | 0.89 ± 0.0061 | 0.87 ± 0.013 | 0.8871 ± 0.0063
100 µM, coculture fibroblast: HADF | 0.885 ± 0.13 | 0.773 ± 0.076 | 0.783 ± 0.09 | 0.816 ± 0.056 | 0.808 ± 0.14 | 0.833 ± 0.019 | 0.78 ± 0.093 | 0.725 ± 0.023 | 0.866 ± 0.1
100 µM, coculture fibroblast: HCFa | 0.9525 ± 0.0036 | 0.979 ± 0.016 | 0.9736 ± 0.0014 | 0.828 ± 0.08 | 0.80336 ± 0.00054 | 0.756 ± 0.04 | 0.757 ± 0.035 | 0.85 ± 0.086 | 0.717 ± 0.019
100 µM, coculture fibroblast: HCPF | 0.962 ± 0.02 | 0.839 ± 0.11 | 0.79 ± 0.069 | 0.796 ± 0.12 | 0.899 ± 0.064 | 0.844 ± 0.071 | 0.782 ± 0.079 | 0.822 ± 0.016 | 0.887 ± 0.052
100 µM, coculture fibroblast: HHSteC | 0.915 ± 0.086 | 0.863 ± 0.069 | 0.747 ± 0.075 | 0.873 ± 0.075 | 0.847 ± 0.027 | 0.785 ± 0.019 | 0.789 ± 0.058 | 0.85 ± 0.047 | 0.832 ± 0.16
100 µM, coculture fibroblast: HMF | 0.939 ± 0.014 | 0.867 ± 0.049 | 0.832 ± 0.077 | 0.872 ± 0.075 | 0.904 ± 0.095 | 0.852 ± 0.17 | 0.9784 ± 0.006 | 0.863 ± 0.15 | 0.947 ± 0.054
100 µM, coculture fibroblast: HPFa | 0.891 ± 0.14 | 0.855 ± 0.11 | 0.775 ± 0.087 | 0.812 ± 0.15 | 0.851 ± 0.029 | 0.831 ± 0.11 | 0.876 ± 0.05 | 0.844 ± 0.011 | 0.958 ± 0.059
100 µM, coculture fibroblast: HUF | 0.941 ± 0.0063 | 0.938 ± 0.018 | 0.972 ± 0.02 | 0.924 ± 0.034 | 0.909 ± 0.039 | 0.892 ± 0.033 | 0.8587 ± 0.0021 | 0.875 ± 0.02 | 0.8588 ± 0.0076
100 µM, coculture fibroblast: Hs5 | 0.824 ± 0.025 | 0.771 ± 0.063 | 0.7044 ± 0.0016 | 0.891 ± 0.04 | 0.845 ± 0.086 | 0.816 ± 0.084 | 0.979 ± 0.022 | 0.9609 ± 0.0079 | 0.983 ± 0.015
100 µM, coculture fibroblast: Hs27A | 0.9507 ± 0.0048 | 0.838 ± 0.11 | 0.866 ± 0.062 | 0.779 ± 0.11 | 0.74 ± 0.061 | 0.796 ± 0.1 | 0.882 ± 0.049 | 0.864 ± 0.097 | 0.787 ± 0.11
100 µM, coculture fibroblast: Hs343T | 0.93 ± 0.019 | 0.9885 ± 0.0068 | 0.917 ± 0.097 | 0.819 ± 0.18 | 0.883 ± 0.043 | 0.89 ± 0.08 | 0.878 ± 0.087 | 0.877 ± 0.091 | 0.901 ± 0.11
100 µM, coculture fibroblast: WS1 | 0.948 ± 0.018 | 0.9457 ± 0.0049 | 0.93 ± 0.034 | 0.884 ± 0.0098 | 0.8559 ± 0.008 | 0.8236 ± 0.0012 | 0.802 ± 0.019 | 0.786 ± 0.02 | 0.78 ± 0.043
